These are yes or no findings as the source states them, for the method shown. Binding seen in cells or lysates may run through a third protein. Some entries that bind do so weakly or less than the wild type.
Columns and labels:
[1] = biological target: SOX2 (Sex determining region Y-box 2), endogenous (human (endogenous in CNE2 and HNE-1)) (UniProt P48431); assay: co-IP; cellular extracts of CNE2 and HNE-1 cells; IP with SOX2 antibody or control IgG and IB with KLF4 antibody; reciprocal IP with KLF4 antibody or control IgG and IB with SOX2 antibody
HA-tagged SOX2 = HA-tagged SOX2 (UniProt P48431); assay: co-IP; 293T cells cotransfected with Flag-KLF4 and HA-SOX2 plasmids; cellular extracts subjected to IP and IB with the indicated antibodies

By UniProt entry, the sequences of proteins in these tests, tags left out.
UniProt P48431: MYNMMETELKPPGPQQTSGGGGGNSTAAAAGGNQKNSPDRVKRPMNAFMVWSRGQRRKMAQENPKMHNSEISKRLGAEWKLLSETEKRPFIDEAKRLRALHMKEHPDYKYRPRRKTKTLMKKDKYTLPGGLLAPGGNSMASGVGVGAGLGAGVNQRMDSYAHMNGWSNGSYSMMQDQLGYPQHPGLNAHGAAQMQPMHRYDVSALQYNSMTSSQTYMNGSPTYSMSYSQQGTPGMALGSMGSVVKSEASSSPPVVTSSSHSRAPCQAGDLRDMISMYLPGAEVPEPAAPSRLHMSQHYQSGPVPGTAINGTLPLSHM
UniProt O43474: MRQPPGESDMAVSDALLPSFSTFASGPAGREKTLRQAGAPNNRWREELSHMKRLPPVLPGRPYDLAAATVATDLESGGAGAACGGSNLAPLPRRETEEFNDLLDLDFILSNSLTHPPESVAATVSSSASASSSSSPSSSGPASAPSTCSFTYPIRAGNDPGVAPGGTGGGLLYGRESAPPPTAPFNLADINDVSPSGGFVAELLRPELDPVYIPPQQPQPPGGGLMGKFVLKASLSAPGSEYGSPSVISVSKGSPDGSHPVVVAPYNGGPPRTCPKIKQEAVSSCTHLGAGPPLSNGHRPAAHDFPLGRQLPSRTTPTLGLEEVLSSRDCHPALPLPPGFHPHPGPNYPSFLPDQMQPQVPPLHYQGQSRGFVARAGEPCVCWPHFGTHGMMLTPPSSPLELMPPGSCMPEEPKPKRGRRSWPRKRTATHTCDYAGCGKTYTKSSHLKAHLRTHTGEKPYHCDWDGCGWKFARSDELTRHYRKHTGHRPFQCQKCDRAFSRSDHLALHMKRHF

Q: Which binding [1] does the source give for “Krüppel-like factor 4 (KLF4), endogenous (from UniProt O43474 1-513)” here?
A: binds

Q: Flag-KLF4 (from UniProt O43474 1-513) was tested. Which binding (HA-tagged SOX2) did it give?
A: binds

Source: PMC6092437
